From patent US10494415B2, “Insulin-like growth factor 2 (IGF2) binding agents” (Cancer Research Technology Limited, priority 2015, dated 2019)
Changes are numbered by the printed parent chain. Numbers in names are those of the source. Some of these results come from one statement about several compounds together.

Amino acid sequences for entries named in this document (tags omitted). Residues count along the entry.
UniProt P01344, 25-91: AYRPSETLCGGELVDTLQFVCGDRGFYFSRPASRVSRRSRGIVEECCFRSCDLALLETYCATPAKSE

B1: K1601R: domain 11 AB5 background + FG loop K1601R (protein)
chain: MKSNEHDDCQVTNPSTGHLFDLSSLSGRAGFTAAYAKGWGVYMSICGENENCPPGVGACFGQTRISVGKANKRLRYVDQVLQLVYKDGSPCPSRSGLSYKSVISFVCRPEAGPTNRPMLISLDKQTCTLFFSWHTPLACEQATECSV
B2: S1602H: domain 11 AB5 background + FG loop S1602H (protein)
chain: B1 chain with R94K, S95H
B3: S1602Q: domain 11 AB5 background + FG loop S1602Q (protein)
chain: B1 chain with R94K, S95Q
B4: G1603K: domain 11 AB5 background + FG loop G1603K (protein)
chain: B1 chain with R94K, G96K

Biological target: IGF2 (Homo sapiens, UniProt P01344)
Assay: SPR (Biacore T200) of recombinant IGF2R domain 11 mutants on immobilised biotinylated IGF2
Format: binding
Parameters: purchased GroPep
Details: single point mutation relative to its AB loop background
Source text: Surface plasmon resonance (SPR) binding analysis of recombinant M6P/IGF2R domain 11 mutants interaction with IGF2. Kon indicates association (on) rate; koff, dissociation (off) rate; RU, response units. Binding to IGF2 assessed with BIAcore T200 using purified biotinylated IGF2 and IGF1 on a streptavidin biosensor chip. Recombinant proteins were expressed either in E. coli and/or P. pastoris. All the mutants in the FG and CD loops are on the domain 11^AB5 background for the AB loop unless otherwise stated. All experiments were carried out at 25° C. in HBS-EP buffer (pH 7.4), were repeated 2-5 times on two independent BIAcore chips. nd=not determined. Data for KD expressed as mean of each experiment, and means of kon and koff are shown.
Measurements were carried out at 25° C. in HBS-EP buffer (pH 7.4) (nd=not determined, np=no protein). Data for KD expressed as mean of each experiment, and means of kon and koff are shown.
Measurements were carried out at 25° C. in MES-EP buffer, 20 mM MES pH 6.5, 150 mM NaCl, 3 mM EDTA, and 0.005% (v/v) surfactant P20). Data for KD expressed as mean of each experiment, and means of kon and koff are shown.
Final kinetic analysis of mutants by SPR was conducted using a Biacore T200 biosensor at 25° C. in either HBS-EP (10 mM HEPES pH 7.4, 150 mM NaCl, 3 mM EDTA, and 0.005% (v/v) surfactant P20) or MES-EP (20 mM MES pH 6.5, 150 mM NaCl, 3 mM EDTA, and 0.005% (v/v) surfactant P20) at a flow-rate of 40 μL min^−1. […] For the analysis of the Fc-domain 11^AB5 interaction, approximately 50 RU of a biotinylated IGF2:biotinylated ubiquitin mixture (1:8 proportion) was immobilized on the CM5-streptavidin chip. This interaction was also analysed by immobilizing the Fc-domain 11^AB5 and Fc-domain 11^AB5-RHH (or Fc-domain 11^I1572A as control) by Human Antibody Capture (monoclonal mouse anti-human IgG antibody immobilised on a CM5 chip by amine coupling, GE Healthcare) with and without human IgG1 Fc fragment (Bethyl Laboratories, UK) in the control flow cell. Increasing concentrations of IGF2^1-67, proIGF2^1-104, proIGF2^1-156 and IGF1 ranging from 0.125 to 32 nM were injected. T200 BiaEvaluation software (GE Healthcare) was used to fit the resulting curves according to a 1:1 binding model. Steady state affinities were determined using the kinetic data, taking the response average at 5 seconds before injection end and for 5 seconds average. Thermodynamic data was performed across the temperature range of 10° C. to 30° C., van't Hoff and Erying plots generated and ΔH, −TΔS and ΔG values determined as previously described.

Molecule	improvement / gain in affinity
B1	up to 2 fold
B2	up to 2 fold
B3	up to 2 fold
B4	up to 2 fold
